# Assay results as given in the supplement of paper PMC3334620.
# Whole data set: some 33,000 sequences, median “E-score (-0.5 to 0.5)” near -0.0014, cut for the highest 2% near 0.25. The list shows a part of the results.
# Target: T1, Cad1 (UniProt P24813)
# T1 sequence: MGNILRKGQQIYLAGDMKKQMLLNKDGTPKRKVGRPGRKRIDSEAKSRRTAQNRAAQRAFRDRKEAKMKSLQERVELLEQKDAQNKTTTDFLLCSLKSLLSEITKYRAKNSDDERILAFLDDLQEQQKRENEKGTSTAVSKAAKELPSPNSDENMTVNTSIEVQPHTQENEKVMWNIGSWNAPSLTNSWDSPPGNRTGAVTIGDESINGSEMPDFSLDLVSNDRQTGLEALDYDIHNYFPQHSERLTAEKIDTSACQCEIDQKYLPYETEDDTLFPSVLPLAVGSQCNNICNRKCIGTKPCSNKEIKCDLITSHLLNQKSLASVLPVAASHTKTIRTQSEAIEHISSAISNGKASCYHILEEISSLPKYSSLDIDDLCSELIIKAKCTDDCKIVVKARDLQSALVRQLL
# Assay: PBM E-score (8-mer binding enrichment) (E-score (-0.5 to 0.5)); higher = stronger / more preferred TF binding
# Conditions: protein concentration: 100 nM; construct: GST-full length
# In short: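 Universal all-10-mer Agilent arrays, double-stranded by primer extension on fresh or once-stripped slides, were probed with about 100-200 nM GST-tagged yeast transcription factors made by PURExpress. Fluorescent anti-GST detected bound protein, and masliner normalised the scans. E-scores from the Universal PBM Analysis Suite were given to each ungapped eight-base word pooled with its reverse complement.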
row,Sequence,PBM E-score
1,ACCATCCT,0.0167
2,ACCAAGGT,-0.041
3,TCTGTAAA,-0.152
4,CCTACTTA,-0.012
5,ACAGACAA,0.29
6,GCTGGCCA,-0.0476
7,ATCTACAG,-0.00523
8,GAGCTCAC,-0.0859
9,CAATGTGA,0.131
10,AGACGGGC,-0.0989
11,AAGTCTCT,-0.189
12,ACGGATTC,0.172
13,TATGCGGA,0.00476
14,CAGGGACA,0.00346
15,GTATTTCA,0.144
16,AGCTCGGA,-0.06
17,CGCACGCA,0.0445
18,CACCGATA,-0.0463
19,ATCTCAGA,-0.0514
20,CCCTTCAG,-0.0567
21,AGTTATGG,-0.0184
22,GACTACGA,-0.0382
23,GATGTACC,-0.00013
24,GAAGCCCA,-0.168
25,AACCGGGC,-0.0306

# Reformatted with tabs: part of the list above.
row	Sequence	PBM E-score
6	GCTGGCCA	-0.0476
15	GTATTTCA	0.144
19	ATCTCAGA	-0.0514

# Later entries

row,Sequence,PBM E-score
1,ATGATGCC,-0.0995
2,ATTCACGC,0.0118
3,CCGGCAGG,-0.0958
4,CCTTTGAG,-0.162
5,CTCATATC,-0.185
6,TATGGTCA,0.0818
7,CCGGTGCA,-0.0936
8,AGCTGTAA,-0.0875
9,ATTGAGCC,0.0356
10,CAGTCTCC,-0.109
11,CATAAAGG,-0.0983
12,CAGTTTGC,0.0526
13,CCTCCTAA,-0.104
14,ATAAAAAC,0.23
15,CACCAGGC,-0.0805
16,GATAGACC,0.0367
17,TAAGTAGA,0.0408
18,TATAAGGA,0.0915
19,CACCTAAG,0.045
20,GGATATAC,0.0894
21,CATTCCGC,-0.0414
22,ATAGACAG,0.0692
23,TACGTAGA,0.051
24,ACAGCTCA,-0.0909
25,AAGTATTC,0.0408

# Part of the list above, tab-delimited:
row	Sequence	PBM E-score
23	TACGTAGA	0.051
24	ACAGCTCA	-0.0909

# (further entries)

row,Sequence,PBM E-score
1,AGAGTGCT,0.0363
2,CTCGGTTC,-0.0565
3,ATCATAAT,0.144
4,CGGCGTTA,-0.177
5,CAGCTCAA,-0.0276
6,ATTTGGCC,0.108
7,AACGCCTT,-0.118
8,CGTCGCAA,0.0357
9,CGTCGGCA,0.148
10,CCCTGCGA,-0.157
11,CCTACCAA,0.0782
12,AGGGTGCA,0.0699
13,CGGCGTGA,-0.0286
14,CTTTCTGA,0.0767
15,AACTTGAA,0.109
16,GCACAGGA,0.076
17,GTCAAAGA,-0.157
18,AATCCGCT,-0.0112
19,AAATCACC,0.0779
20,CAAGTATC,0.00476
21,ACATCGCA,-0.134
22,CATCAGGC,0.0343
23,GCTTCGTA,-0.0537
24,CCCCCATA,-0.331
25,GCCCGTTA,-0.142

row,Sequence,PBM E-score
1,ATATGCTG,0.00054
2,CAAGATGC,0.249
3,GCAATACA,0.291
4,AGTCACTA,0.0232
5,ACGAGGTG,0.0508
6,ATAAAATC,0.0813
7,ATCGTTAC,0.0243
8,GCCCGAGC,-0.0893
9,ACAATGTA,0.0306
10,TCACATAA,0.162
11,ATAGGTTG,-0.0699
12,ACCACGCT,-0.176
13,GAGAGTAA,0.137
14,AAAACAAG,-0.00051
15,CGTGCGAG,0.0963
16,CGCATTAG,0.106
17,CTTACGAC,-0.0445
18,AAAGTCAG,0.0103
19,ACGCGTAC,0.215
20,GATACGCC,0.0938
21,CAGTGTGG,-0.15
22,AGCACGTA,-0.0687
23,GCCCCTAA,-0.125
24,CAAACTGC,-0.0471
25,CAGCCTAC,-0.0684

# Single entries from the entries so far:
# Value for CAGTGTGG under PBM E-score: -0.15
# Value for AACGCCTT under PBM E-score: -0.118

# More results:

row,Sequence,PBM E-score
1,CGCGGGCA,0.228
2,CCTCGCCG,-0.151
3,CTCTACGC,-0.109
4,AAGCGTAT,-0.0193
5,AATTAACT,0.0573
6,AAGCGCTA,0.107
7,ACGGGCGC,0.0801
8,CAGTCCAG,-0.0544
9,AGATAAAC,0.123
10,CGTAAGCA,0.232
11,CTTGGGGC,-0.162
12,CGGGCCAG,-0.0841
13,GGCCCAAA,-0.0127
14,CAGCGCAA,-0.0285
15,AAGACATG,-0.208
16,GAATGTGC,-0.0206
17,ATCATGAA,0.177
18,ACTGGACC,-0.049
19,AGGTCGGG,-0.144
20,GCAGAAGC,-0.0325
21,GACGCTCA,-0.024
22,ACAGTTAT,0.00233
23,AGCTAGCA,-0.0255
24,AGATGTTG,-0.0315
25,ATGAGGGA,-0.218

row,Sequence,PBM E-score
1,AGTTTAAA,0.106
2,GACCCCAA,-0.0199
3,AGCCAGGG,-0.207
4,ACTGGATG,-0.0232
5,AATGCAGT,0.0913
6,CCATGTGC,0.05
7,CCACACCG,0.0132
8,CCTGCGAC,-0.118
9,CAGCAGCG,0.11
10,AGCCTCTC,-0.224
11,CAGAAGTC,-0.13
12,TATAGCAA,0.00281
13,GACTGTCA,-0.046
14,CAAGGGAA,0.034
15,CTTTAATC,-0.00133
16,CATACGTC,-0.175
17,ACCGCGCC,0.0081
18,AGTGAACC,0.101
19,CACGAAAG,0.0698
20,GTCTTAAA,-0.0335
21,CAGCCAGC,-0.108
22,ATAAGACC,-0.18
23,GGCGTCCC,-0.213
24,ATAATCTA,0.185
25,CGCCCTAA,-0.114

row,Sequence,PBM E-score
1,CTGTCCCC,-0.119
2,GACACCAA,0.0633
3,CGCCGGAA,0.0602
4,AACCTTGA,0.0727
5,ACCGGCCT,-0.0659
6,CTACTCGC,0.0123
7,TGCTGCAA,0.153
8,CCGACCAG,-0.0271
9,ATAGGTGA,-0.0537
10,GATTATAC,0.0962
11,AAGCCAGG,-0.155
12,ATCCCCGC,-0.00423
13,CATGACTC,-0.146
14,CTGGTGCA,-0.264
15,CCGGAACC,0.0783
16,CAGAGCAA,-0.0906
17,ACCGGAAA,0.135
18,GGATTTAA,0.0137
19,CTGTGATC,-0.0125
20,TCCCCCAA,-0.221
21,TGGCGGAA,-0.14
22,GCCCATAC,-0.1
